PubChem BioAssay AID1259254 | NCATS – 2017

Purpose: 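Genome-wide screen for genes that prevent DNA re-replication in cancer cells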 (primary screen)
System: human HCT116 colorectal cancer cells
Reagent: single siRNA against human genes
Timing: 3 days
Detection: 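Nuclei stained with Hoechst and imaged; cell-cycle phase assigned by DNA content; G2 share scaled per plate, non-targeting siRNA 0%, GMNN siRNA 100%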
Reading the numbers: G2 robust z-score and G2 cells, % of GMNN control: higher = more G2 cells, more excess DNA replication; raw share of cells in G2: higher = larger share of cells with G2 DNA content
Rule for the call: 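Active siRNAs have a G2 robust z of 5 or more median absolute deviations over the median, which in these data means about 38% or higher of GMNN control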
In all, the deposit lists about 59,000 reagents; shown is an unselected part. Of all reagents, about 1,550 (2.6%) got an active call. 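G2 share is only a proxy for re-replication; each gene was hit by three separate siRNAs, and active genes were retested.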 The raw values are shown without normalisation. Unmarked entries are inactive. The numbers tell different reagents against one gene apart. Not stated in the record: the amount of reagent.

The opening 2 records as a preview:
target gene,siRNA no.,G2 robust z-score,"G2 cells, % of GMNN control",raw share of cells in G2 (%)
SNX29P1 (sorting nexin 29 pseudogene 1),1,-0.9,-3.36,2.59
SNX29P1 (sorting nexin 29 pseudogene 1),2,-0.0454,2.65,4.57

The list itself, from the first entry:
target gene,siRNA no.,G2 robust z-score,"G2 cells, % of GMNN control",raw share of cells in G2 (%)
SNX29P1 (sorting nexin 29 pseudogene 1),1,-0.9,-3.36,2.59
SNX29P1 (sorting nexin 29 pseudogene 1),2,-0.0454,2.65,4.57
SNX29P1 (sorting nexin 29 pseudogene 1),3,1.33,12.3,9.91
"CORIN (corin, serine peptidase)",1,-0.496,-0.524,5.38
"CORIN (corin, serine peptidase)",2,0.527,6.67,7.27
"CORIN (corin, serine peptidase)",3,-1.16,-5.22,1.96
CCDC28A (coiled-coil domain containing 28A),1,0.344,5.39,6.44
CCDC28A (coiled-coil domain containing 28A),2,1.26,11.8,9.05
CCDC28A (coiled-coil domain containing 28A),3,0.416,5.9,5.36
DOC2B (double C2 domain beta),1,-0.661,-1.68,4.1
DOC2B (double C2 domain beta),2,2.58,21.1,12.7
DOC2B (double C2 domain beta),3,-0.511,-0.626,4.25
"MROH3P (maestro heat like repeat family member 3, pseudogene)",1,0.0709,3.47,4.14
"MROH3P (maestro heat like repeat family member 3, pseudogene)",2,-0.464,-0.294,3.67
"MROH3P (maestro heat like repeat family member 3, pseudogene)",3,4.66,35.8,16.5
"MROH3P (maestro heat like repeat family member 3, pseudogene)",4,-0.0804,2.4,3.81
"MROH3P (maestro heat like repeat family member 3, pseudogene)",5,-0.444,-0.154,3.72
"MROH3P (maestro heat like repeat family member 3, pseudogene)",6,-0.825,-2.84,2.17
KEL (Kell metallo-endopeptidase (Kell blood group)),1,-1.32,-6.32,3.35
KEL (Kell metallo-endopeptidase (Kell blood group)),2,1.05,10.4,8.57
KEL (Kell metallo-endopeptidase (Kell blood group)),3,0.403,5.8,6.07
PRSS23 (serine protease 23),1,-1.71,-9.08,2.39
PRSS23 (serine protease 23),2,1.24,11.7,9.03
PRSS23 (serine protease 23),3,-1.14,-5.03,2.03
SLC35E1,1,-0.204,1.53,5.08
SLC35E1,2,0.828,8.79,8.15
SLC35E1,3,-0.316,0.745,2.58
GPRC5B (G protein-coupled receptor class C group 5 member B),1,-0.924,-3.53,4.58
GPRC5B (G protein-coupled receptor class C group 5 member B),2,2.41,19.9,11.5
GPRC5B (G protein-coupled receptor class C group 5 member B),3,-0.292,0.914,3.55
HTN3 (histatin 3),1,0.362,5.52,5.23
HTN3 (histatin 3),2,-0.727,-2.15,2.12
HTN3 (histatin 3),3,-0.46,-0.272,4.17
PHETA1 (PH domain containing endocytic trafficking adaptor 1),1,1.7,14.9,8.82
PHETA1 (PH domain containing endocytic trafficking adaptor 1),2,3.63,28.5,11.7
PHETA1 (PH domain containing endocytic trafficking adaptor 1),3,-0.687,-1.87,2.42
SURF1 (SURF1 cytochrome c oxidase assembly factor),1,-0.167,1.8,5.93
SURF1 (SURF1 cytochrome c oxidase assembly factor),2,-1.06,-4.47,2.12
SURF1 (SURF1 cytochrome c oxidase assembly factor),3,-0.164,1.81,3.99
MTERF3 (mitochondrial transcription termination factor 3),1,-1.07,-4.59,2.1
MTERF3 (mitochondrial transcription termination factor 3),2,0.0532,3.34,5.81
MTERF3 (mitochondrial transcription termination factor 3),3,-0.414,0.0535,3.27
TRPM3,1,-1.43,-7.1,1.6
TRPM3,2,-0.435,-0.094,5.25
TRPM3,3,0.542,6.78,7.07
RAD54L2 (RAD54 like 2),1,-0.848,-3,3.15
RAD54L2 (RAD54 like 2),2,4.78,36.6,16.4
RAD54L2 (RAD54 like 2),3,-0.736,-2.21,5.48
"ZNF321P (zinc finger protein 321, pseudogene)",1,0.11,3.74,6.42
"ZNF321P (zinc finger protein 321, pseudogene)",2,1.34,12.4,8.8
"ZNF321P (zinc finger protein 321, pseudogene)",3,4.92,37.6,22.1
IL4I1 (interleukin 4 induced 1),1,-1.28,-6.03,2.49
IL4I1 (interleukin 4 induced 1),2,-0.561,-0.979,5.49
IL4I1 (interleukin 4 induced 1),3,-0.93,-3.57,3.2
MAZ (MYC associated zinc finger protein),1,-0.462,-0.282,5.25
MAZ (MYC associated zinc finger protein),2,-1.08,-4.64,3.63
MAZ (MYC associated zinc finger protein),3,-0.771,-2.45,2.39
C2orf68 (chromosome 2 open reading frame 68),1,-0.0456,2.65,4.68
C2orf68 (chromosome 2 open reading frame 68),2,-0.871,-3.16,2.03
C2orf68 (chromosome 2 open reading frame 68),3,-0.534,-0.788,4.3
RUFY3 (RUN and FYVE domain containing 3),1,-0.00444,2.94,6.14
RUFY3 (RUN and FYVE domain containing 3),2,1.49,13.4,9.67
RUFY3 (RUN and FYVE domain containing 3),3,0.895,9.27,6.64
YAP1 (Yes1 associated transcriptional regulator),1,-0.0374,2.7,6.87
YAP1 (Yes1 associated transcriptional regulator),2,1.2,11.4,7.53
YAP1 (Yes1 associated transcriptional regulator),3,0.569,6.97,9.23
DMTF1 (cyclin D binding myb like transcription factor 1),1,-0.681,-1.82,2.92
DMTF1 (cyclin D binding myb like transcription factor 1),2,0.615,7.29,9.24
DMTF1 (cyclin D binding myb like transcription factor 1),3,-0.318,0.727,3.64
NEURL3 (neuralized E3 ubiquitin protein ligase 3),1,-0.187,1.65,4.79
NEURL3 (neuralized E3 ubiquitin protein ligase 3),2,-0.669,-1.74,2.45
NEURL3 (neuralized E3 ubiquitin protein ligase 3),3,0.85,8.95,5.76
PRDX2 (peroxiredoxin 2),1,-0.737,-2.22,4.21
PRDX2 (peroxiredoxin 2),2,-0.987,-3.97,3.16
PRDX2 (peroxiredoxin 2),3,-1.14,-5.05,2.46
CHL1-AS2 (CHL1 antisense RNA 2),1,-0.891,-3.3,2.18
CHL1-AS2 (CHL1 antisense RNA 2),2,-0.264,1.11,4.06
CHL1-AS2 (CHL1 antisense RNA 2),3,2.63,21.4,11
KCNB2 (potassium voltage-gated channel subfamily B member 2),1,0.909,9.37,8.7
KCNB2 (potassium voltage-gated channel subfamily B member 2),2,3.85,30,14.9
KCNB2 (potassium voltage-gated channel subfamily B member 2),3,-0.77,-2.45,3.42
H2BC1 (H2B clustered histone 1),1,1.37,12.6,8.16
H2BC1 (H2B clustered histone 1),2,-0.75,-2.31,2.34
H2BC1 (H2B clustered histone 1),3,-0.325,0.684,3.41
ZDHHC18 (zDHHC palmitoyltransferase 18),1,2.05,17.4,10.5
ZDHHC18 (zDHHC palmitoyltransferase 18),2,0.335,5.32,6.76
ZDHHC18 (zDHHC palmitoyltransferase 18),3,4.49,34.5,19.8
